This is an account of results in patent US6939845B2, “Fragrance precursors” (Givaudan SA, priority 2000, dated 2005).

A short description of the series: Spray tests: release on cotton Terry towel upon irradiation with a tanning lamp, judged by trained panel of perfumers. The arrangement: key: O: very weak; +: weak; ++: medium; +++: strong. The conditions noted are these: 45-75 μg/g cotton, after irradiation with tanning lamp 300 W. As for the experimental part:
1 g of an approximately 0.2% cyclic phenacyl acetal (I) solution in ethanol was evenly sprayed on a Terry towel (white cotton towel, 25cm×25 cm, 45 g), corresponding to 45-75 μg/g cotton. The sprayed towels were allowed to dry in a dark and odorless place. When dry, the towels were irradiated for a few seconds up to a few minutes with a tanning lamp (Osram ULTRA-VITALUX®, 300 W; at a distance of 50 cm, the light has approximately six to seven times the effect of the natural sunlight at noon on a sea-side mid-summer day). The evaluation was done by a trained panel of perfumers before and after irradiation. Before irradiation, the towels were judged to be odorless.
Take `Cc1cc2c(cc1C(=O)COC1CCC3(CCC(C)CC3)O1)C(C)(C)CC(C)C2(C)C` (stereo not drawn) [compound 1, 1-(3,5,5,6,8,8-Hexamethyl-5,6,7,8-tetrahydro-naphtalen-2-yl)-2-(8-methyl-1-oxa-spiro[4.5]dec-2-yloxy)-ethanone]: the “Fragrance Target (perception) aryl ketone (II)” value (from here on “Fragrance Target … (II)”) is given as “FIXOLIDE ® (++)”, the “Fragrance Target (perception) lactone (III)” value (from here on “Fragrance Target … (III)”) was “METHYL LAITONE ® (+)” and the Global appreciation result is “+”.
On to `CCCCCCCC1CCC(OCC(=O)c2cc3c(cc2C)C(C)(C)C(C)CC3(C)C)O1` (stereo not drawn) [compound 2, 2-(5-Heptyl-tetrahydro-furan-2-yloxy)-1-(3,5,5,6,8,8-hexamethyl-5,6,7,8-tetrahydro-naphtalen-2-yl)-ethanone], for which the “Fragrance Target … (II)” value is recorded as “FIXOLIDE ® (++)”, the “Fragrance Target … (III)” value is listed as “PEACH PURE ® (++)” and the Global appreciation entry is reported as “++”.
Consider `CCCCCCCC1CCC(OCC(=O)c2ccc3ccccc3c2)O1` (stereo not drawn) [compound 3, 2-(5-Heptyl-tetrahydro-furan-2-yloxy)-1-naphtalen-2-yl-ethanone], for which the “Fragrance Target … (II)” value is on record as “ORANGER CRYSTALS ® (++)”, the “Fragrance Target … (III)” value was “PEACH PURE ® (++)” and the Global appreciation entry is reported as “++”.
Regarding `CCCCCCCC1CCC(OCC(=O)c2ccc(OC)cc2)O1` (stereo not drawn) [compound 4, 2-(5-Heptyl-tetrahydro-furan-2-yloxy)-1-(4-methoxy-phenyl)-ethanone], the “Fragrance Target … (II)” value is “Acetanisole (++)”, the “Fragrance Target … (III)” value is “PEACH PURE ® (++)” and the Global appreciation entry was “+++”.
For the molecule `C/C=C/CCC1CCCC(OCC(=O)c2cc3c(cc2C)C(C)(C)C(C)CC3(C)C)O1` (stereo not drawn) [compound 5, 1-(3,5,5,6,8,8-Hexamethyl-5,6,7,8-tetrahydro-naphthalen-2-yl)-2-(6-pent-3-enyl-tetrahydro-pyran-2-yloxy)-ethanone], the “Fragrance Target … (II)” value is recorded as “FIXOLIDE ® (++)”, the “Fragrance Target … (III)” value is “JASMOLACTONE ® (+++)” and the Global appreciation result is given as “+++”.
On to `C/C=C/CCC1CCCC(OCC(=O)c2ccc3ccccc3c2)O1` (stereo not drawn) [compound 6, 1-(Naphtalen-2-yl)-2-(6-pent-3-enyl-tetrahydro-pyran-2-yloxy)-ethanone], for which the “Fragrance Target … (II)” value is listed as “ORANGER CRYSTALS ® (++)”, the “Fragrance Target … (III)” value was “JASMOLACTONE ® (++)” and the Global appreciation result is “++”.
